Measurements reported in paper PMC12847318.
These are yes or no findings as the source states them, for the method shown. Binding seen in cells or lysates may run through a third protein. Binding calls can cover weak binding; strength is not graded here.

By UniProt entry, the sequences of proteins in these tests, tags left out. Where a name states a change or a piece, a line headed by the entry shows the natural chain unless it says otherwise.
UniProt Q13507: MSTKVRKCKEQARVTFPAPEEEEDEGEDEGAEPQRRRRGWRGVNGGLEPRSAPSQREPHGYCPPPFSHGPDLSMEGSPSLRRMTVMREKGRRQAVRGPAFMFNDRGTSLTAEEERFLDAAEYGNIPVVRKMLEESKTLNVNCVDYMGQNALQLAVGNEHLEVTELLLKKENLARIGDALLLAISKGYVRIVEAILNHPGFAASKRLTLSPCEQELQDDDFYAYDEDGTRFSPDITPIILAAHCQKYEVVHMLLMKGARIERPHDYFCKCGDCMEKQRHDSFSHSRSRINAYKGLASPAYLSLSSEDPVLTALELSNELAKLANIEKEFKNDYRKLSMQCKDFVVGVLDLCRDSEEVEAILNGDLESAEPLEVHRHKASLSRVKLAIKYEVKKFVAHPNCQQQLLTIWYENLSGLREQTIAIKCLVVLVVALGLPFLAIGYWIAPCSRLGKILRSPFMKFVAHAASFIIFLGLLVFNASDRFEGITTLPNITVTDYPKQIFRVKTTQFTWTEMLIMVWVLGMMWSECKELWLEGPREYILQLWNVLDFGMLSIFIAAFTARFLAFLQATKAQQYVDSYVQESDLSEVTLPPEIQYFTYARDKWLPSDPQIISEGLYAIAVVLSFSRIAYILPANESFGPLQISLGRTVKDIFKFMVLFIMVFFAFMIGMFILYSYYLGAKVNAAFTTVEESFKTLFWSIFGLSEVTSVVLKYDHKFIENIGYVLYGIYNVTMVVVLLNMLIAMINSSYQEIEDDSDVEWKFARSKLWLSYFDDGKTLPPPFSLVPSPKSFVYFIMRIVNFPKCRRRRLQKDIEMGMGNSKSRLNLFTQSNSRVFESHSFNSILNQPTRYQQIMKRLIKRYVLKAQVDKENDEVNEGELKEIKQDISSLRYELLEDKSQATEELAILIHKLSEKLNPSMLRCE
UniProt Q02156: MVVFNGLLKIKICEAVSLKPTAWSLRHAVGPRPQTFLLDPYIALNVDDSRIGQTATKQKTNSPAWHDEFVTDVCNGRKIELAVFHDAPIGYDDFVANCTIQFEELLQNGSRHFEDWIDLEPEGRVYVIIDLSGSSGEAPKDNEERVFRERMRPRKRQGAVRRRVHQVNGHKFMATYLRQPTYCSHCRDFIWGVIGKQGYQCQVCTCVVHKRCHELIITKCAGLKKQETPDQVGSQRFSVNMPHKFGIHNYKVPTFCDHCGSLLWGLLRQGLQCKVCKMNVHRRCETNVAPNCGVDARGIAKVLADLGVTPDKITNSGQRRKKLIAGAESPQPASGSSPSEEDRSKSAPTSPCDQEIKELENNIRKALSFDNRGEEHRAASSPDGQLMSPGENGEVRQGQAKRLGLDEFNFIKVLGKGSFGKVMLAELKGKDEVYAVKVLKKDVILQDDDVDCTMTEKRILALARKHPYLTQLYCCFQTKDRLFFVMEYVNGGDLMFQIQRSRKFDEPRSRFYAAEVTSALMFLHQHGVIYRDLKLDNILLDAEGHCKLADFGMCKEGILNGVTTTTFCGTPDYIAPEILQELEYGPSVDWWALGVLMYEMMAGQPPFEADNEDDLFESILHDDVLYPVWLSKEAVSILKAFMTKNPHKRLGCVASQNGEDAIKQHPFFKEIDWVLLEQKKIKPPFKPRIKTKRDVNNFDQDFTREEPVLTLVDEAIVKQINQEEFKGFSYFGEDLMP

Biological target: Human TRPC3 (eYFP-hTRPC3) (human) (UniProt Q13507)
Assay: FRET or BRET; acceptor photobleaching FRET (mCherry bleached in ROIs, eYFP read) by confocal microscopy in HEK-TLR4 cells co-expressing TRPC3-eYFP and a PKC-mCherry, treated with PMA for 10 min; positive control eYFP-mCherry fusion, negative control eYFP and mCherry co-expressed separately

binding | Substance
binds | PKCα-mCherry (from UniProt P17252 1-672) (enzyme)
binds | PKCϵ-mCherry (from UniProt Q02156 1-737) (enzyme)
